# Assay results reported in PubChem BioAssay AID1347426 (Functional Genomics Laboratory (NCATS/FGL), 2020).
# The campaign covered roughly 31,000 sequences. About 1,400 (4.5%) were called active.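 How the source made its calls: active means median seed-adjusted z-score above 1 or below -1; inactive means the rest.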 The list shows a part of the results.
# Experiment: Novel Modifiers of Survival Motor Neuron (SMN) Protein: Gene Identification via Genome-wide siRNA Screen;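 further: luminescence tracks full-length SMN protein made from the SMN2 reporter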
# Conditions: HEK293T SMN2-luciferase reporter, siRNA knockdown, 72 h; actives lie on both sides
# Method in brief: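 HEK293T cells stably carrying an SMN2 promoter/splicing cassette–luciferase reporter were reverse-transfected with 1 pmol siRNA per well (druggable-genome library, 3 siRNAs per gene) and grown 72 h at 37 °C. Luminescence, normalized to negative-control siRNA and log10-transformed, was scored as MAD.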
row,Sequence,median seed-adjusted z-score
1,GAGGCAUUCUUUGAGCGAATT against ZNF554,inactive: 0.0311
2,CCAGUCAGUUGACCAUUGATT against BRF1,inactive: -0.261
3,GAAUCCUGAUGGUAUCAAUTT against CDH11,inactive: -0.457
4,CGAGCGUACAGGUCAAUUATT against GATM,inactive: 0.182
5,GGAAGCUACUUUCAAGCGATT against TAGAP,inactive: 0
6,GUAUAGACAUCUUCACUAATT against CP,inactive: 0.188
7,ACAAUGAUCUGGAGAAACATT against HMHA1,inactive: -0.285
8,GCACAAGGAGUGACCUUCUTT against GCHFR,inactive: -0.559
9,GUCUGGAGAUGAUCGACCATT against HPD,inactive: -0.126
10,GGAAGGAAAUCUCAACUAUTT against CDH4,inactive: 0
11,UGAAUUACCUGGACCGUUUTT against CCND2,inactive: -0.819
12,UGAAAUGGAUGAAAACCUATT against SNAP25,inactive: 0
13,GAAGGAGUUUGACAUUAAUTT against MYH6,inactive: 0
14,CGACAUAUGUCUGAUAACATT against SFRS15,inactive: 0.22
15,AGGCAAAGACGGAACAACATT against TRIM69,inactive: 0.214
16,GGUUGGUCUUUAUUGAGCATT against CFD,inactive: -0.0604
17,GGAAUCAAGAAGUUACUAATT against NSF,inactive: -0.0728
18,GCAGAUUGCUGGUCACAAATT against PLA2G2F,inactive: 0.508
19,AGACACUUCUACAAGCCCATT against DGAT1,inactive: 0.148
20,GGAUAAACUUUAUACUGGUTT against MMAA,inactive: -0.664
21,CCCUGAUGGAAAACGCAUATT against FLT1,inactive: 0.407
22,GCUUUAACCUGGGCAUGUUTT against NAT6,inactive: -0.327

# Looked up above:
# GCACAAGGAGUGACCUUCUTT against GCHFR | median seed-adjusted z-score: inactive: -0.559
# GGAUAAACUUUAUACUGGUTT against MMAA | median seed-adjusted z-score: inactive: -0.664
# AGACACUUCUACAAGCCCATT against DGAT1 | median seed-adjusted z-score: inactive: 0.148
# GAGGCAUUCUUUGAGCGAATT against ZNF554 | median seed-adjusted z-score: inactive: 0.0311
# UGAAUUACCUGGACCGUUUTT against CCND2 | median seed-adjusted z-score: inactive: -0.819
# GAAGGAGUUUGACAUUAAUTT against MYH6 | median seed-adjusted z-score: inactive: 0

# Next results follow:

row,Sequence,median seed-adjusted z-score
1,GCCUCUCAGUGUCUGACUUTT against SRC,inactive: -0.0246
2,GAAACAUCCUUGGUACCUATT against BRSK1,inactive: -0.0495
3,CCUCAAGCAGAAUCUAAGATT against PTN,inactive: -0.174
4,GCAAUUUCCUGAUCAAAUUTT against EXTL2,inactive: -0.0568
5,GAACAAUUUUGCAAGAGUUTT against CPT2,inactive: 0.542
6,GCACGAAAAUCCCGACAUATT against DDX54,inactive: 0
7,GGAUGAUGCAAAGGUCAAATT against SREBF2,inactive: -0.606
8,GGAUCAGUUUGACAGUUUUTT against RNPEP,inactive: -0.236
9,CCUCAUCCAUGUAAGGUUATT against MYOG,inactive: -0.0972
10,GGAUGUAGUUUUUGGAACATT against NHLRC2,inactive: 0.548
11,CCUUCGACCUCAAGAGACATT against OVOL1,inactive: -0.0414
12,GAGAGAAACUGUCAGAGUATT against RNF185,inactive: -0.388
13,AGAUGAUCGAGAAAACCAATT against POLD1,inactive: -0.715
14,GCCUCACUGUACAAGUAUATT against FMO1,inactive: 0.323
15,CAAUUUGACUAUACUUAUUTT against CCR1,inactive: 0
16,GUUCUUCCCUGGAUUUACATT against TMPRSS13,inactive: 0.0584
17,GGAGCGAUUUGCUGGUGUATT against RPS16,inactive: 0
18,AACAUUACUUGGUCUCAAATT against ICAM2,inactive: 0.269
19,GAAUGUCAUCCGUAUUUCATT against AKR1C3,inactive: -0.00538
20,AGGUCCUACGCUUCCAAAATT against CYP2D6,inactive: -0.0488
21,GCUCACUUCCGGAAUACAATT against KMO,inactive: 0.443
22,CCAUUGUUCCAGACUUCUUTT against CMBL,inactive: 0

row,Sequence,median seed-adjusted z-score
1,GGCUAUGCUUGUGAAGUUATT against NKRF,inactive: -0.0368
2,GGCUUAUGAGGAUAAAAAUTT against GLO1,inactive: -0.0827
3,GGCUGUAGGAGUUAGUCAATT against STAU1,inactive: -0.143
4,UCAUCUUUGUCAUCGUGUATT against SMO,inactive: -0.457
5,GCCUAAGCAACGUAGCUUATT against SMC3,inactive: 0.507
6,GCGUCAGGUGGAUACUAAATT against NT5C2,inactive: -0.687
7,GGAGCUUUGUCAAGAAGAUTT against FKBPL,active: -1.11
8,GGCUUUCUCUCAGACAACUTT against SSTR1,inactive: 0.285
9,GAGUCACAAAAAGUCCAGATT against WFDC12,inactive: 0
10,CGACAAGAUCAAAUACCCATT against LZTR1,inactive: 0.293
11,GAUCCGCGUUGGAACCAAUTT against RCOR2,inactive: -0.129
12,GGAAUGACUGAAUCUGAUATT against FXR1,inactive: 0.131
13,CGCUAUACCUACCAGCAAATT against DNAJB12,inactive: 0
14,CAAGGGACCUUAUAGGAGATT against CDC25A,inactive: 0.235
15,GCCUUGCUGUUAAAGGGCATT against PARP2,inactive: -0.366
16,GGGACGUGUUUAUCAAGGATT against OSBPL5,inactive: 0.638
17,AGGUGUCUGAGAUUAAGAATT against FOXRED1,inactive: 0.447
18,AGCUUACGGUUCUGAAGGATT against BRUNOL4,inactive: 0
19,CUGUGACACUGAGUCCCGATT against VAX2,inactive: -0.71
20,CAGAAGAAGUGUUUCAGAATT against BCR,inactive: 0.143
21,CAACGGUAUGAAUAACAAUTT against PIK3R1,inactive: 0.196
22,AGCUACGAGUUCAUGCGGATT against PLEKHJ1,inactive: -0.213

row,Sequence,median seed-adjusted z-score
1,GAUCGAAACCAUAAUAGAUTT against BAZ1B,inactive: 0.00593
2,GCACUUAUGCUGAUGAAGATT against ZNF398,inactive: 0.119
3,GGACCCUGAGAAAACCAUATT against FKBP10,inactive: 0.229
4,GGCUCUGUUUAAUCGACUATT against RBPJ,inactive: -0.452
5,CAGCAGUGAUUAUGAGUGUTT against ZNF671,inactive: -0.0551
6,CAUUCAUCAUCCACCCAGATT against MUPCDH,inactive: -0.329
7,ACAUUUUUACCAUCAGUAATT against TRPM2,inactive: 0.226
8,AUGACGACAUUGACUCUUATT against RAD9A,inactive: -0.0564
9,CGAAAAUUGAUGCAUGUGATT against NDUFB5,inactive: -0.122
10,GCAAGCAAGUCCUAACAUUTT against RAB5A,inactive: 0.244
11,GGCAGAAAGUCCAAAGGAATT against FXYD1,inactive: 0.276
12,CACUUUGUCUGUGACCGAATT against UQCRC1,inactive: -0.284
13,GCAGAUCCGACAGAACUGATT against P2RY2,inactive: 0.119
14,GAACGAUUCUUAACGUGGATT against NARS,inactive: -0.361
15,GAAAAGACAUGGAGUUAUUTT against DYRK3,inactive: 0.358
16,CCCUAGAGCCUGACUUUAATT against DAG1,inactive: -0.104
17,GUAUCUUGAUAGUACCCAATT against NFE2L3,inactive: 0.118
18,GACCUGCUCUUACAUUUAATT against IL13,inactive: 0.435
19,AGACAGACGAAGAAACUAATT against POLR3D,inactive: -0.434
20,CCAAAGCUUUCCUAAUGAATT against RAB32,inactive: -0.112
21,GAAUCCACCUUCGACCUGATT against HMX1,active: 1.3
22,AGUUCAGGGUAUUUAAUAATT against ITLN1,inactive: 0.23

row,Sequence,median seed-adjusted z-score
1,CGACACUGCCGAAUGGAAATT against SRCRB4D,inactive: -0.0568
2,CCACGUAAGCAAAAGAGCATT against GAB1,inactive: 0.373
3,GGGACAAGCUUGACAAGGUTT against TRIM62,inactive: -0.000231
4,GGAGGAUCACCGACGUGAUTT against CTRB1,inactive: -0.214
5,AACUAGUAAGGCUCAGUAATT against AKAP7,inactive: 0.37
6,GAUCUUUCCUGGUCCAAAATT against GABBR1,inactive: -0.0526
7,CGGUGUCAGUCAUCGAUGATT against ATP6V0D1,inactive: -0.242
8,GGAUAAACCAGGAACUGAATT against KIF7,inactive: 0.0274
9,GCAAGGUCUCCAUCCUAGATT against PRKAR1B,inactive: -0.0406
10,GCAACAGCUCAAAAACGAATT against UAP1,inactive: 0.0411
11,UCAAAGUAUUGUCCAGACATT against MBOAT7,inactive: 0.314
12,CGUGAUCCCAGUCAUCUUATT against HRH4,inactive: 0.247
13,GCCUCCGAAUGGUACCUGATT against HPD,inactive: -0.126
14,GAACCAAGUUGUAUUGUUATT against PLDN,inactive: -0.164
15,AGUCUUCAGCGAGACCCUUTT against SST,inactive: -0.043
16,CGUUAGAGCUGAUUUACGATT against EPRS,inactive: -0.391
17,CGGCGGUUCUAUACUCGUATT against PLAGL2,inactive: 0.0744
18,CAUCUGAUCUGAAAAGGCATT against ZFP161,inactive: 0.154
19,GCAGGUAGCUCAUAUGUUUTT against WDR31,inactive: 0.796
20,CCCGAAAUGUCACUACUAATT against MRE11A,inactive: 0.0507
